The supplement of paper PMC10849652
The list shows a part of the results.

By UniProt entry, the sequences of proteins in these tests, tags left out. Where a name states a change or a piece, a line headed by the entry shows the natural chain unless it says otherwise.
UniProt Q86UV5: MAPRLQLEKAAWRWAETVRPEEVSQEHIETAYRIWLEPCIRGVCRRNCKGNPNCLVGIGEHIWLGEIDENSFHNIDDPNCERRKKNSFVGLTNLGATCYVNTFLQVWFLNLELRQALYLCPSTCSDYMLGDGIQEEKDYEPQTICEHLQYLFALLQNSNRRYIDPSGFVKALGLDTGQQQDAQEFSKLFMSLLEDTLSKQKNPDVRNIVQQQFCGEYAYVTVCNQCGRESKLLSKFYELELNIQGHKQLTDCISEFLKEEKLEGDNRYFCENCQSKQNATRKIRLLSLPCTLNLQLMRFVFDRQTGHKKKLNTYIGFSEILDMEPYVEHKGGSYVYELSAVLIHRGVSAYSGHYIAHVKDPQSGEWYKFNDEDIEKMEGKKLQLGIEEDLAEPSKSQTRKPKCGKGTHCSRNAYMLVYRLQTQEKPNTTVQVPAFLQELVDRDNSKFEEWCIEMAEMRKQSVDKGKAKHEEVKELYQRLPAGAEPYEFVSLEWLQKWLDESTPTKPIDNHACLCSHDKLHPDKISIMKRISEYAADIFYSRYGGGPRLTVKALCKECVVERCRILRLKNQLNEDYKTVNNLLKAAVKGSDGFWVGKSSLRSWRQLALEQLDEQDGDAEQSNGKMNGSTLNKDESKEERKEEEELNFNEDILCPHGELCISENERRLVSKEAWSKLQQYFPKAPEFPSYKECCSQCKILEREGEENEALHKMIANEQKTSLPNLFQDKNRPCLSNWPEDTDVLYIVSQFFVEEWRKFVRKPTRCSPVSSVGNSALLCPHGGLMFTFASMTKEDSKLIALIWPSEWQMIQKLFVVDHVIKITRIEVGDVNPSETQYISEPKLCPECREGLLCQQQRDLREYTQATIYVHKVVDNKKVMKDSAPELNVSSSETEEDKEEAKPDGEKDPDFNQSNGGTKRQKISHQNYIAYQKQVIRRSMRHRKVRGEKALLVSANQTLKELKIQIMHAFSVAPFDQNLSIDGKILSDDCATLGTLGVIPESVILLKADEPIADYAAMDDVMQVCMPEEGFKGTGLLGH
UniProt O95292, whole entry, looked up: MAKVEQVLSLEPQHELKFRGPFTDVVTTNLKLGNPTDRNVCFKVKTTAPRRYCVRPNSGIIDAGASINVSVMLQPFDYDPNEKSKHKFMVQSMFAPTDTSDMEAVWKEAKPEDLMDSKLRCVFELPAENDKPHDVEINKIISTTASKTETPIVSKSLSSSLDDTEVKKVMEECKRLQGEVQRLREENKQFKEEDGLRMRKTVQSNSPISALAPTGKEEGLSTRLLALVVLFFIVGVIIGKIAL
UniProt Q9NUQ7: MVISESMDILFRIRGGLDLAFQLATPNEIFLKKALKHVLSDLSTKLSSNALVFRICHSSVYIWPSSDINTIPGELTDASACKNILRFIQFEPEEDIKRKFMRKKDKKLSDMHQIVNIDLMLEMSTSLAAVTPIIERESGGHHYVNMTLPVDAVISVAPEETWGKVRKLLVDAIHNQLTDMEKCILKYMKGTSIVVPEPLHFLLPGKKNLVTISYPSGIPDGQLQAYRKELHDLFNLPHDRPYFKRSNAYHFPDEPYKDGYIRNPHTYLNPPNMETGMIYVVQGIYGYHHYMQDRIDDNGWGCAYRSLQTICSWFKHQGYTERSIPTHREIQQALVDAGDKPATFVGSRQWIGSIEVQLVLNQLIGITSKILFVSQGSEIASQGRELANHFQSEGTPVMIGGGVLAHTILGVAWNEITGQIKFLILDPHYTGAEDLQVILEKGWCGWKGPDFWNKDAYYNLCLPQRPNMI
UniProt O94888: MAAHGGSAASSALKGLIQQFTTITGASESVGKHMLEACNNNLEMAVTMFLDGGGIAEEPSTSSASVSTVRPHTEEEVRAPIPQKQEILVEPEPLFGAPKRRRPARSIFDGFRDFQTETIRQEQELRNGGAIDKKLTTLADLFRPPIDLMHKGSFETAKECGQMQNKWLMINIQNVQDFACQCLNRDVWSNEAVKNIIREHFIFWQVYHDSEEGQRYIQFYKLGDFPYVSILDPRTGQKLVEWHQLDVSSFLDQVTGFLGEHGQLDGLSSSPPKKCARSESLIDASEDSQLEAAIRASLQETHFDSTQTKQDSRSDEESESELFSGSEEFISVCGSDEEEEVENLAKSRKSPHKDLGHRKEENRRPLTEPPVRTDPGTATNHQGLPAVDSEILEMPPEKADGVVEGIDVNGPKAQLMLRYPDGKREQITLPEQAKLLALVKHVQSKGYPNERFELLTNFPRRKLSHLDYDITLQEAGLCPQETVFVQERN
UniProt O94763, whole entry, looked up: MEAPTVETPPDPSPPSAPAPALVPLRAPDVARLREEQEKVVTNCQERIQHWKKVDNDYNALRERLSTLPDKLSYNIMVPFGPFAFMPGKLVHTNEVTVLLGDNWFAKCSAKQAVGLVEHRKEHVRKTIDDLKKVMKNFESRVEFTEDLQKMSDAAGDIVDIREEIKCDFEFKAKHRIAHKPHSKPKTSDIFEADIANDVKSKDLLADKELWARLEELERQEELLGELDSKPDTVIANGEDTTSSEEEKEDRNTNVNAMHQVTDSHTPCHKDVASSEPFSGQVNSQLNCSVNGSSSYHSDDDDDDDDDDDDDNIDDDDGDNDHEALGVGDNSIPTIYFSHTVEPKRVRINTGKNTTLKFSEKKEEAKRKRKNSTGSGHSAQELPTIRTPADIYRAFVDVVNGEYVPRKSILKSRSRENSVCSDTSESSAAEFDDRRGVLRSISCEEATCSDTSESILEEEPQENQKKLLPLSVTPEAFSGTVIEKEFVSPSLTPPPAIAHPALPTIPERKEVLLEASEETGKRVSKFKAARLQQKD
UniProt P06132: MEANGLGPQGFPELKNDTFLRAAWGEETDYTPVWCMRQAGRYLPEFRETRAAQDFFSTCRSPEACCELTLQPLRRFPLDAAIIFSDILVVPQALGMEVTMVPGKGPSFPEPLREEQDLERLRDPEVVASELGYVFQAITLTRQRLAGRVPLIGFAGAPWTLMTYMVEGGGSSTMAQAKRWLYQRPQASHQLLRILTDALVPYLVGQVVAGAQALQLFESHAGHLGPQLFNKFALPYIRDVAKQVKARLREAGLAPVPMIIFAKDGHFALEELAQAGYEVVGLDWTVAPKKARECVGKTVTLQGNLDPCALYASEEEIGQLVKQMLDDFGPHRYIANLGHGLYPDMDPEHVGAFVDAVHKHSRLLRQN
UniProt Q96BW1: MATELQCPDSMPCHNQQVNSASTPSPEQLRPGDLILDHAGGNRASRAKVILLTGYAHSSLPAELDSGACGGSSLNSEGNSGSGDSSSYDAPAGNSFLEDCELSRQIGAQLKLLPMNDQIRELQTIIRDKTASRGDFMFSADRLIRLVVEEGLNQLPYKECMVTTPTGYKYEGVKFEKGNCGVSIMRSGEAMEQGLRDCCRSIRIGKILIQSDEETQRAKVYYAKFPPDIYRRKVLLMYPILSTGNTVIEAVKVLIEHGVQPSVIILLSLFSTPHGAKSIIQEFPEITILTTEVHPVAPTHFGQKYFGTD
UniProt P47985: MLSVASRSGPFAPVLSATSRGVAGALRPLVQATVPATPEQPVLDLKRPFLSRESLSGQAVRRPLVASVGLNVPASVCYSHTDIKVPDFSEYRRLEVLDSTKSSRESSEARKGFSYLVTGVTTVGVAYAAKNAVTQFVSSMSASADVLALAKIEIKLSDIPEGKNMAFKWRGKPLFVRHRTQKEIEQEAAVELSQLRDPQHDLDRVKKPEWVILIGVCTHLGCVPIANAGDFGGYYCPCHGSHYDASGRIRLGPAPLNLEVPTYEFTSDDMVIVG
UniProt P51809, whole entry, looked up: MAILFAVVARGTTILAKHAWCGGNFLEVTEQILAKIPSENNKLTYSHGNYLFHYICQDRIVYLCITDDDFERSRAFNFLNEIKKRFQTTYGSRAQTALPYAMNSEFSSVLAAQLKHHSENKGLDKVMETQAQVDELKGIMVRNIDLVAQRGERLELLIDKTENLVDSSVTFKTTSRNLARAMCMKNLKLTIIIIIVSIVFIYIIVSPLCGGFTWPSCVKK
UniProt Q92575: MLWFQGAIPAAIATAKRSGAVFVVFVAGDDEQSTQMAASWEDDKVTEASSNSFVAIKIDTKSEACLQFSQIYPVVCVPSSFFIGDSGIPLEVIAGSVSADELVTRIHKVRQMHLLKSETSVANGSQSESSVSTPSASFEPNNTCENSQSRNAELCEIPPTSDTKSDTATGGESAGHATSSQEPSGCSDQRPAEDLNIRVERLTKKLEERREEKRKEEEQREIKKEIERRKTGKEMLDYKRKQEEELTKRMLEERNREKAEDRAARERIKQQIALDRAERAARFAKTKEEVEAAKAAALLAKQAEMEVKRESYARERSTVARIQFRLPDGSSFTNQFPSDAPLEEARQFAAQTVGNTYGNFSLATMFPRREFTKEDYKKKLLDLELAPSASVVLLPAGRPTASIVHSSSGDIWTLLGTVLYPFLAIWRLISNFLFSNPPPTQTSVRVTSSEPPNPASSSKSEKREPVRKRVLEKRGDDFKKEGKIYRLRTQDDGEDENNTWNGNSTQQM
UniProt Q96RL1: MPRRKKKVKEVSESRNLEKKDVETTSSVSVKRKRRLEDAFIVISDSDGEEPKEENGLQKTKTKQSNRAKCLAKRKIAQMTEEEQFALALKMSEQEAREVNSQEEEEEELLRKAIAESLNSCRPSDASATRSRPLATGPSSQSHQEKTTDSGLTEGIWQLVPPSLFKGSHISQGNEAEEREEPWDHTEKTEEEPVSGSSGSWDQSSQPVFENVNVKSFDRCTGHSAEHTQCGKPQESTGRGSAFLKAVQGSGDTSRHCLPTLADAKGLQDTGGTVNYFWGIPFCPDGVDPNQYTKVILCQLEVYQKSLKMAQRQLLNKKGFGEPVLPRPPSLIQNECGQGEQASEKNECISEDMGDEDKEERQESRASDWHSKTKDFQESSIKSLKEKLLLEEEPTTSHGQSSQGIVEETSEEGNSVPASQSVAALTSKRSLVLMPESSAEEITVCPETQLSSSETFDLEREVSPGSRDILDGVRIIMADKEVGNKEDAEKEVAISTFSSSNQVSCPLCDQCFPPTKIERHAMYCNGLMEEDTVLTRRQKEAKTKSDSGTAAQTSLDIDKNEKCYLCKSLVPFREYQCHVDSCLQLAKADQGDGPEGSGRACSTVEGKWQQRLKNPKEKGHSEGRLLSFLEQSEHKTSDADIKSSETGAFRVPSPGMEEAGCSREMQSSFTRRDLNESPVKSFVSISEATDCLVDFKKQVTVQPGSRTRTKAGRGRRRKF
UniProt Q9Y4E8: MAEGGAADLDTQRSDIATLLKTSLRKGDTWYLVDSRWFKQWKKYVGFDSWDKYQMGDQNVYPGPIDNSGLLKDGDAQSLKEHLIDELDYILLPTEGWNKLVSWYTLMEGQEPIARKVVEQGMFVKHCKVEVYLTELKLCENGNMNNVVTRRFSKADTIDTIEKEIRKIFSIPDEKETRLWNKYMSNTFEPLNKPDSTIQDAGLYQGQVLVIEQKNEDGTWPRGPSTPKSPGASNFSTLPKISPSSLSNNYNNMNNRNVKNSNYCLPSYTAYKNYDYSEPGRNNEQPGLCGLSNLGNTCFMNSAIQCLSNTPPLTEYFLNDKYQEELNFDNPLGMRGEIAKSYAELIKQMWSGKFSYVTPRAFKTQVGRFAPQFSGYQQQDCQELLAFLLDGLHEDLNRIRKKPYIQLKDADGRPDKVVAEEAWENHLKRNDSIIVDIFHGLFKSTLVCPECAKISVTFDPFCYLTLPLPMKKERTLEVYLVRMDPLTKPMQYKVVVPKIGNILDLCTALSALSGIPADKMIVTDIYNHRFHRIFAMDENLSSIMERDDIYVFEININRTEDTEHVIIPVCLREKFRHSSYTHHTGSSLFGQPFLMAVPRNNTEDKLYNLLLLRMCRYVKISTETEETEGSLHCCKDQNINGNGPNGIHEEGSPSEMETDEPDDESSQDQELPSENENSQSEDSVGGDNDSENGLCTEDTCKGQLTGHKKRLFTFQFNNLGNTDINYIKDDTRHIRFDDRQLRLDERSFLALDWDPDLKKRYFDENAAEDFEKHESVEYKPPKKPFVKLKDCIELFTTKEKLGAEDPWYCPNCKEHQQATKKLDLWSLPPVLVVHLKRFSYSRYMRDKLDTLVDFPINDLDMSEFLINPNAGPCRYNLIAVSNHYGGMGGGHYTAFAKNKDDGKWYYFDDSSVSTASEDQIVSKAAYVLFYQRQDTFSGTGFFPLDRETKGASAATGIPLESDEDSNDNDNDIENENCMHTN
UniProt Q9HA47: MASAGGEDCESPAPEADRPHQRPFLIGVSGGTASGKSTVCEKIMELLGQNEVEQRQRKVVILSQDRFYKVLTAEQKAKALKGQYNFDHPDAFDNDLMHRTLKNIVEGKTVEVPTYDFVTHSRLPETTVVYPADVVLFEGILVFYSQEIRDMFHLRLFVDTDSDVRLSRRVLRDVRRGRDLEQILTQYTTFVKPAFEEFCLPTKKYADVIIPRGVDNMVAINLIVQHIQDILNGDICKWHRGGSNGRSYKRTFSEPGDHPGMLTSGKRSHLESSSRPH

Tests used:
Assay in all cases: log2 fold change, soluble protein after heating vs DMSO (PISA); higher = thermal stabilisation; K562 cells, 10 uM, 30 min; active = over 0.2 and 3.5 SD of the protein, either way, in both replicates (recomputed)
[1] = compound: Cc1ccc(NC(=O)c2ccc(CN3CC[C@H](N(C)C)C3)c(C(F)(F)F)c2)cc1Nc1nccc(-c2cncnc2)n1 [bafetinib]
Summary of the method: (§1)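 Soluble protein was defined as the supernatant after 21,000xg for 90 min. It came from K562 cells at 2×10^6 cells/mL given 10 μM compound for 30 min, heated in aliquots for 3 min across 48°C-58°C, pooled, and extracted in PBS with 0.5% NP-40 at 4°C, and was quantified by TMTpro 16plex LC-MS/MS with equalised channel sums. Thermal stability against control samples, from duplicates, is reported as log2 fold change.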

[2] = compound: Cc1cccc(CC(=O)N2CCc3c2ccc(-c2cn(C)c4ncnc(N)c24)c3F)n1
Summary of the method: as §1

[3] = compound: Cc1cn(-c2cc(NC(=O)c3ccc(C)c(Nc4nccc(-c5cccnc5)n4)c3)cc(C(F)(F)F)c2)cn1 [nilotinib]
Summary of the method: as §1

[4] = compound: Cc1nc(Nc2n[nH]c3c2CN(C(=O)N[C@H](CN(C)C)c2ccccc2)C3(C)C)c2sccc2n1
Summary of the method: as §1

[5] = compound: Cc1nc(Nc2ncc(C(=O)Nc3c(C)cccc3Cl)s2)cc(N2CCN(CCO)CC2)n1 [dasatinib]
Summary of the method: as §1

[6] = compound: Cc1ncc(-c2ccnc(Nc3ccc(S(C)(=O)=O)cc3)n2)n1C(C)C
Summary of the method: as §1

[7] = compound: Cn1cc(-c2ccc3c(c2)CCN3C(=O)Cc2cccc(C(F)(F)F)c2)c2c(N)ncnc21
Summary of the method: as §1

[8] = compound: Cn1cc(-c2ccc3nnc(C(F)(F)c4ccc5ncccc5c4)n3n2)cn1
Summary of the method: as §1

[9] = compound: Cn1cncc1[C@@](N)(c1ccc(Cl)cc1)c1ccc2c(c1)c(-c1cccc(Cl)c1)cc(=O)n2C [tipifarnib]
Summary of the method: as §1

[10] = compound: FC(F)(F)c1ccc(/C=C/c2nc(COc3ccc(CCCCn4ccnn4)cc3)co2)cc1 [mubritinib]
Summary of the method: as §1

[11] = compound: NC(=O)Nc1cc(-c2cccc(F)c2)sc1C(=O)N[C@H]1CCCNC1
Summary of the method: as §1

[12] = compound: NC(=O)c1cnc(N[C@@H]2CCCC[C@@H]2N)nc1Nc1cccc(-n2nccn2)c1
Summary of the method: as §1

[13] = compound: NC1(c2ccc(-c3nc4ccn5c(=O)[nH]nc5c4cc3-c3ccccc3)cc2)CCC1
Summary of the method: as §1

[14] = compound: NCC(=O)Nc1ccc(-n2nc(C(F)(F)F)cc2-c2ccc3c(ccc4ccccc43)c2)cc1
Summary of the method: as §1

[15] = compound: Nc1ccccc1NC(=O)c1ccc(CNC(=O)OCc2cccnc2)cc1 [entinostat]
Summary of the method: as §1

[16] = compound: O=C(CCCCCCC(=O)Nc1ccccc1)NO [vorinostat]
Summary of the method: as §1

[17] = compound: O=C(CCCCCCNC(=O)c1cnc(N(c2ccccc2)c2ccccc2Cl)nc1)NO [citarinostat]
Summary of the method: as §1

[18] = compound: O=C(O)c1ccc2c(c1)nc(Nc1cccc(Cl)c1)c1ccncc12 [silmitasertib]
Summary of the method: as §1

[19] = compound: O=C1NC(=O)C(c2cnc3ccccn23)=C1c1cn2c3c(cc(F)cc13)CN(C(=O)N1CCCCC1)CC2
Summary of the method: as §1

[20] = compound: c1cc(OCCN2CCCCC2)cc(-c2n[nH]c3ccc(-c4nnc[nH]4)cc23)c1
Summary of the method: as §1

Measured: log2 fold change

USP48 isoform 8 (UniProt Q86UV5)
inactive: [1] 0.005 | [2] -0.089 | [3] -0.097 | [4] -0.362 | [5] -0.139 | [6] -0.073 | [7] -0.041 | [8] 0.097 | [9] -0.11 | [10] -0.021 | [11] -0.077 | [12] 0.002 | [13] -0.235 | [14] -0.125 | [15] 0.351 | [16] 0.178 | [17] 0.177 | [18] 0.094 | [19] -0.177 | [20] -0.157

VAPB (UniProt O95292)
inactive: [1] -0.018 | [2] 0.052 | [3] -0.001 | [4] -0.008 | [5] 0.005 | [6] -0.006 | [7] 0.041 | [8] -0.001 | [9] 0.022 | [10] 0.026 | [11] 0.005 | [12] -0.031 | [13] -0.034 | [14] -0.037 | [15] 0.005 | [16] -0.006 | [17] 0.057 | [18] 0.009 | [19] 0.002 | [20] 0.014

UFSP2 (UniProt Q9NUQ7)
inactive: [1] -0.01 | [2] 0.076 | [3] -0.032 | [4] -0.022 | [5] -0.102 | [6] -0.004 | [7] -0.029 | [8] -0.039 | [9] -0.082 | [10] 0.084 | [11] 0.019 | [12] 0.006 | [13] -0.052 | [14] -0.064 | [15] 0.034 | [16] 0.047 | [17] 0.021 | [18] -0.031 | [19] -0.009 | [20] -0.022

UBXN7 (UniProt O94888)
inactive: [1] -0.035 | [2] 0.015 | [3] 0.039 | [4] -0.028 | [5] -0.049 | [6] -0.007 | [7] 0.023 | [8] -0.046 | [9] -0.002 | [10] 0.048 | [11] 0.019 | [12] -0.048 | [13] -0.096 | [14] 0 | [15] 0.047 | [16] 0.046 | [17] 0.038 | [18] 0.023 | [19] -0.042 | [20] 0.131

URI1 (UniProt O94763)
inactive: [1] 0.074 | [2] 0.091 | [3] 0.023 | [4] -0.006 | [5] -0.019 | [6] 0.074 | [7] 0.065 | [8] 0.04 | [9] 0.044 | [10] 0.074 | [11] -0.042 | [12] -0.088 | [13] -0.01 | [14] -0.033 | [15] -0.001 | [16] -0.025 | [17] 0.029 | [18] 0.003 | [19] 0.117 | [20] -0.129

UROD (UniProt P06132)
inactive: [1] -0.049 | [2] 0 | [3] 0.052 | [4] -0.016 | [5] 0.038 | [6] 0.006 | [7] 0.054 | [8] -0.038 | [9] -0.049 | [10] -0.009 | [11] -0.01 | [12] 0.052 | [13] 0.04 | [14] 0.05 | [15] -0.061 | [16] -0.021 | [17] -0.013 | [18] -0.044 | [19] 0.009 | [20] -0.006

UPRT (UniProt Q96BW1)
inactive: [1] 0.08 | [2] 0.009 | [3] -0.141 | [4] -0.011 | [5] -0.054 | [6] -0.007 | [7] 0.168 | [8] 0.04 | [9] -0.067 | [10] -0.027 | [11] -0.021 | [12] -0.079 | [13] -0.023 | [14] 0.037 | [15] -0.043 | [16] -0.053 | [17] -0.101 | [18] -0.018 | [19] 0.007 | [20] -0.005

UCHL3 (UniProt P15374)
inactive: [1] -0.018 | [2] -0.022 | [3] -0.059 | [4] -0.063 | [5] -0.058 | [6] -0.008 | [7] 0.034 | [8] -0.002 | [9] 0 | [10] -0.048 | [11] -0.024 | [12] -0.045 | [13] -0.094 | [14] -0.001 | [15] 0.019 | [16] 0.036 | [17] 0.001 | [18] -0.021 | [19] -0.074 | [20] -0.029

UQCRFS1 (UniProt P47985)
inactive: [1] -0.001 | [2] -0.129 | [3] 0.032 | [4] -0.003 | [5] 0.024 | [6] -0.032 | [7] 0.059 | [8] 0.094 | [9] 0.038 | [10] -0.021 | [11] 0.088 | [12] 0.092 | [13] 0.035 | [14] 0.118 | [15] 0.025 | [16] -0.112 | [17] -0.01 | [18] -0.051 | [19] -0.017 | [20] 0.087

VAMP7 (UniProt P51809)
inactive: [1] -0.066 | [2] 0.025 | [3] -0.034 | [4] -0.04 | [5] 0.002 | [6] 0.023 | [7] 0.017 | [8] 0.086 | [9] -0.04 | [10] 0.003 | [11] -0.029 | [12] 0.001 | [13] -0.176 | [14] -0.069 | [15] 0.009 | [16] 0.025 | [17] 0.086 | [18] 0.027 | [19] -0.058 | [20] 0.026

UBLCP1 (UniProt Q8WVY7)
inactive: [1] 0.016 | [2] -0.034 | [3] -0.101 | [4] 0.074 | [5] -0.063 | [6] 0.116 | [7] -0.052 | [8] 0.006 | [9] -0.072 | [10] 0.155 | [11] -0.084 | [12] -0.009 | [13] -0.165 | [14] -0.048 | [15] 0.122 | [16] 0 | [17] 0.085 | [18] 0.049 | [19] -0.142 | [20] 0.035

UBXN4 (UniProt Q92575)
inactive: [1] -0.053 | [2] 0.031 | [3] -0.052 | [4] 0.006 | [5] -0.034 | [6] -0.042 | [7] -0.032 | [8] 0.064 | [9] -0.031 | [10] 0.089 | [11] -0.001 | [12] -0.064 | [13] -0.12 | [14] -0.004 | [15] -0.006 | [16] 0.007 | [17] 0.056 | [18] -0.016 | [19] 0 | [20] -0.018

Pulled one by one from the entries so far (2):
VAMP7 (UniProt P51809)
inactive: [1] -0.066 | [2] 0.025 | [3] -0.034 | [4] -0.04 | [5] 0.002 | [6] 0.023 | [7] 0.017 | [8] 0.086 | [9] -0.04 | [10] 0.003 | [11] -0.029 | [12] 0.001 | [13] -0.176 | [14] -0.069 | [15] 0.009 | [16] 0.025 | [17] 0.086 | [18] 0.027 | [19] -0.058 | [20] 0.026

UCHL3 (UniProt P15374)
inactive: [1] -0.018 | [2] -0.022 | [3] -0.059 | [4] -0.063 | [5] -0.058 | [6] -0.008 | [7] 0.034 | [8] -0.002 | [9] 0 | [10] -0.048 | [11] -0.024 | [12] -0.045 | [13] -0.094 | [14] -0.001 | [15] 0.019 | [16] 0.036 | [17] 0.001 | [18] -0.021 | [19] -0.074 | [20] -0.029

The list goes on:

UIMC1 (UniProt Q96RL1)
inactive: [1] 0.049 | [2] -0.12 | [3] 0.017 | [4] 0.031 | [5] 0.008 | [6] 0.015 | [7] -0.113 | [8] -0.082 | [9] 0.114 | [10] -0.082 | [11] 0.011 | [12] 0.111 | [13] 0.185 | [14] 0 | [15] -0.057 | [16] 0.03 | [17] -0.119 | [18] 0.058 | [19] 0.277 | [20] -0.172

UBE3C (UniProt Q15386)
inactive: [1] -0.027 | [2] 0.031 | [3] -0.047 | [4] -0.096 | [5] -0.068 | [6] 0.017 | [7] -0.025 | [8] -0.097 | [9] -0.054 | [10] -0.005 | [11] 0.011 | [12] -0.061 | [13] -0.086 | [14] -0.096 | [15] 0.025 | [16] 0.023 | [17] 0.005 | [18] 0.027 | [19] -0.125 | [20] -0.065

USP15 (UniProt Q9Y4E8)
inactive: [1] -0.01 | [2] 0.047 | [3] -0.064 | [4] -0.082 | [5] -0.099 | [6] 0.005 | [7] 0.021 | [8] 0.044 | [9] -0.081 | [10] 0.023 | [11] -0.017 | [12] -0.078 | [13] -0.185 | [14] -0.066 | [15] 0.052 | [16] 0.044 | [17] 0.064 | [18] 0.035 | [19] -0.016 | [20] -0.022

UCK1 (UniProt Q9HA47)
inactive: [1] -0.041 | [2] 0.012 | [3] -0.004 | [4] -0.117 | [5] -0.032 | [6] -0.01 | [7] 0.043 | [8] -0.083 | [9] 0.04 | [10] -0.022 | [11] -0.019 | [12] -0.013 | [13] 0.071 | [14] 0.017 | [15] 0.012 | [16] 0.102 | [17] 0.1 | [18] -0.066 | [19] -0.064 | [20] -0.062
